Test [1] concerns the target T1, latent 65 kDa heparanase (Hpa65) (UniProt Q9Y251).
T1 sequence (looked up): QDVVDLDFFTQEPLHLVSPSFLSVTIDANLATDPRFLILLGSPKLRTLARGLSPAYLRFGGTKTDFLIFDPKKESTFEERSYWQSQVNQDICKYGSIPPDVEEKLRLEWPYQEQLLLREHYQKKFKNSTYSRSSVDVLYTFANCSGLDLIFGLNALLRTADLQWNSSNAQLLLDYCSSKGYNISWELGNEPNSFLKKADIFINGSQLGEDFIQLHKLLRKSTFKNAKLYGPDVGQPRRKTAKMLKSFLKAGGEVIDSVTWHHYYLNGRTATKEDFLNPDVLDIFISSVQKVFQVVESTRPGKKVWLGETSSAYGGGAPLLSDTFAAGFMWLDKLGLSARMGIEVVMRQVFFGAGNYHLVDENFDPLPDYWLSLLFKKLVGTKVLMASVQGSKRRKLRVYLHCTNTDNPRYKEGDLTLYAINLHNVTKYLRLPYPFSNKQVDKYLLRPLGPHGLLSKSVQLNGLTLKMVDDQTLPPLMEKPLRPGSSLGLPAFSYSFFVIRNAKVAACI
In words: ELISA on immobilized latent heparanase (FIG. 2A). A general note: An ELISA detects its analyte on a solid surface through an enzyme-linked reagent.

Test [2] deals with T2, purified heparanase (HPSE) (UniProt Q9Y251).
T2 sequence (looked up) 1: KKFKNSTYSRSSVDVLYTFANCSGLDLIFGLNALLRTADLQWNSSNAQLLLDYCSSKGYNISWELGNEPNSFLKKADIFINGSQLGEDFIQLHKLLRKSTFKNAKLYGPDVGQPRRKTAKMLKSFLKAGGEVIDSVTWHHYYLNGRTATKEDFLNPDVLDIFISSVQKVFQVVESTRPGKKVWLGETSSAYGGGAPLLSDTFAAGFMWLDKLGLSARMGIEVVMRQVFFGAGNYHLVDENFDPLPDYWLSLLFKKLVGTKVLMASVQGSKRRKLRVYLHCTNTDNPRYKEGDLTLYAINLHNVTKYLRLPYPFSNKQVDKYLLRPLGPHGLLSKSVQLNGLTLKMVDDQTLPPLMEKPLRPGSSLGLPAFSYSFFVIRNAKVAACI
T2 sequence (looked up) 2: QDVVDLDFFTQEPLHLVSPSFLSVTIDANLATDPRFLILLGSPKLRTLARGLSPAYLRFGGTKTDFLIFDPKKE
Put plainly: size exclusion chromatography of the Fab:HPSE mixture.

For test [3], the target named is T2, purified heparanase (HPSE). In words: X-ray crystallography of the complex.

No constants are given. Whether binding was seen depends on the method and setting. Some results given as binding are weak or reduced against the parent protein; the word gives no strength.

B1: mAb A54 (antibody, IgG1, V domains shown)
VH: QVQLQQSGAELAKPGASVRMSCKASGYTFTNYWMHWVKQRPGQGLEWIGYINPTTGYTEYNQKFKDKATLTADKSSSTAYMQLSSLTSEDSAVYYCARGGAGYDYDEDYAMDYWGQGTSVTVSS
VL: DIVLTQSPASLAVSLGQRATISCRASESVEYFGTSYMNWYQQKPGQPPKLLIYLASILESGIPARFSGSGSGTDFTLNIHPVEEEDAATYYCQQSNEDPYTFGGGTKLEIK
notes: Murine monoclonal antibody, IgG1-Kappa; Purified on protein G from hybridoma, also expressed in 293F cells; also called A54 mAb; A54 antibody
In the case of B1, the binding entry in test [1] is “binds”.

B2: A54 Fab (Fab, V domains shown)
VH: QVQLQQSGAELAKPGASVRMSCKASGYTFTNYWMHWVKQRPGQGLEWIGYINPTTGYTEYNQKFKDKATLTADKSSSTAYMQLSSLTSEDSAVYYCARGGAGYDYDEDYAMDYWGQGTSVTVSS
VL: DIVLTQSPASLAVSLGQRATISCRASESVEYFGTSYMNWYQQKPGQPPKLLIYLASILESGIPARFSGSGSGTDFTLNIHPVEEEDAATYYCQQSNEDPYTFGGGTKLEIK
Consider B2, for which the binding entry in test [2] and in test [3] was “binds” throughout.

These data come from patent US20250136719A1 (TECHNION RESEARCH AND DEVELOPMENT FOUNDATION, published 2025).
